Measurements reported in PubChem BioAssay AID686938 (Drosophila RNAi Screening Center, 2013)

- Aim: 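Looking for CRAC channel components and the factors controlling them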 (primary screen)
- Cells: Drosophila S2R+ cells
- Reagent: long dsRNA against Drosophila genes, about 0.25 µg dsRNA per well, roughly 10,000 cells
- Time to read-out: 5 days of knock-down before the calcium assay
- Conditions: thapsigargin (SERCA pump blocker) to empty calcium stores; entry signal taken 4 min after adding it
- Read-out: 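Duplicate raw fluo-4 intensities per well from a plate reader, at rest and four minutes after thapsigargin emptied calcium stores; entry-to-rest ratio filled for only some wells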
- Reading the numbers: calcium entry signal: higher = stronger calcium signal after store depletion; resting calcium signal: higher = higher resting calcium signal
- Units: calcium entry signal in fluorescence units; resting calcium signal in fluorescence units
- Active means: 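Hit if the duplicate-averaged plate z-score for entry over resting signal is under −3; wells with weak total dye signal (Fmax z < −2) or more than 5 off-targets removed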
- Meaning of the calls: active = strongly reduced calcium entry; inactive = no strong reduction
The screen tested about 23,000 reagents; below is a random part of those with a known target gene and a result. In the full data, 75 (0.33%) got an active call. 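Raw plate signals without normalisation; calls rest on plate z-scores that were not deposited; ratio present for only 364 wells.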 The numbers tell different reagents against one gene apart. The record does not give: the dose of the treatment.

PQBP1 (Poly-glutamine tract binding protein 1) gave calcium entry signal, replicate 1 = 5.64e7; calcium entry signal, replicate 2 = 4.03e7; resting calcium signal, replicate 1 = 2.55e7; resting calcium signal, replicate 2 = 1.82e7; inactive.
After knock-down of CG9876, the screen gave calcium entry signal, replicate 1 = 4.11e7; calcium entry signal, replicate 2 = 4.82e7; resting calcium signal, replicate 1 = 2.04e7; resting calcium signal, replicate 2 = 2.10e7; inactive.
t-cup (tetleys-cup) scored calcium entry signal, replicate 1 = 4.13e7; calcium entry signal, replicate 2 = 4.79e7; resting calcium signal, replicate 1 = 2.06e7; resting calcium signal, replicate 2 = 2.01e7; inactive.
Against CG16837, the entry reads calcium entry signal, replicate 1 = 4.52e7; calcium entry signal, replicate 2 = 4.35e7; resting calcium signal, replicate 1 = 2.17e7; resting calcium signal, replicate 2 = 1.83e7; inactive.
For CG5676 the deposit lists calcium entry signal, replicate 1 = 2.93e7; calcium entry signal, replicate 2 = 3.67e7; resting calcium signal, replicate 1 = 1.39e7; resting calcium signal, replicate 2 = 1.55e7; inactive.
Knock-down of Lamtor1 (Late endosomal/lysosomal adaptor, MAPK and MTOR activator 1) came out at: calcium entry signal, replicate 1 = 3.37e7; calcium entry signal, replicate 2 = 4.69e7; resting calcium signal, replicate 1 = 1.70e7; resting calcium signal, replicate 2 = 1.98e7; inactive.

A portion from the list above:
PQBP1 (Poly-glutamine tract binding protein 1) | calcium entry signal, replicate 1: 5.64e7; calcium entry signal, replicate 2: 4.03e7; resting calcium signal, replicate 1: 2.55e7; resting calcium signal, replicate 2: 1.82e7; Outcome: inactive
CG9876 | calcium entry signal, replicate 1: 4.11e7; calcium entry signal, replicate 2: 4.82e7; resting calcium signal, replicate 1: 2.04e7; resting calcium signal, replicate 2: 2.10e7; Outcome: inactive

Additional entries:
Silencing of FASN2 (Fatty acid synthase 2) #1 resulted in: calcium entry signal, replicate 1 = 4.13e7; calcium entry signal, replicate 2 = 4.40e7; resting calcium signal, replicate 1 = 1.99e7; resting calcium signal, replicate 2 = 1.92e7; inactive.
With knock-down of FASN2 (Fatty acid synthase 2) #2 the results were calcium entry signal, replicate 1 = 4.45e7; resting calcium signal, replicate 1 = 2.56e7; inactive.
Against CG33108, the values are calcium entry signal, replicate 1 = 3.28e7; calcium entry signal, replicate 2 = 3.42e7; resting calcium signal, replicate 1 = 1.73e7; resting calcium signal, replicate 2 = 1.47e7; inactive.
After knock-down of ATP8B (ATPase 8B) #1 the results were calcium entry signal, replicate 1 = 3.38e7; calcium entry signal, replicate 2 = 4.39e7; resting calcium signal, replicate 1 = 1.82e7; resting calcium signal, replicate 2 = 2.07e7; inactive.
Against ATP8B (ATPase 8B) #2, the values are calcium entry signal, replicate 1 = 2.37e7; calcium entry signal, replicate 2 = 2.36e7; resting calcium signal, replicate 1 = 1.25e7; resting calcium signal, replicate 2 = 1.19e7; inactive.
With knock-down of CG31038 #1, the screen gave calcium entry signal, replicate 1 = 3.35e7; calcium entry signal, replicate 2 = 4.22e7; resting calcium signal, replicate 1 = 1.75e7; resting calcium signal, replicate 2 = 2.06e7; inactive.
After knock-down of CG31038 #2, the record shows calcium entry signal, replicate 1 = 5.08e7; calcium entry signal, replicate 2 = 6.43e7; resting calcium signal, replicate 1 = 2.33e7; resting calcium signal, replicate 2 = 2.44e7; inactive.
With knock-down of CG31038 #3 the results were calcium entry signal, replicate 1 = 3.98e7; calcium entry signal, replicate 2 = 5.71e7; resting calcium signal, replicate 1 = 2.26e7; resting calcium signal, replicate 2 = 2.38e7; inactive.
